Results: PubChem BioAssay AID1487 (National Center for Advancing Translational Sciences (NCATS), 2009)
The other results are listed elsewhere or left out. These are further read-outs of the screen, such as a control signal, another cell line or another target. No call is given for them. Compounds called inactive in the main read-out are mostly missing here. Potencies come from curve fits of mixed quality, noted in brackets.

Test: qHTS Assay for Modulators of Lamin A Splicing
Settings: HeLa LMNA splicing GFP/RFP minigene ratio, 48 h
Summary of the method: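 S3 HeLa stable clones carrying a lamin A-EGFP splicing minigene plus DsRed2 were seeded at 600 cells/well in Opti-MEM with 2% FBS, pin-dosed and incubated 48 h at 37°C. Acumen cytometry (488 nm) gave the GFP/RFP total-intensity ratio.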

[1] = measured here: GFP splicing reporter channel
[2] = measured here: RFP viability control channel

SMILES	AC50 [1]	AC50 [2]
O=C(COn1nnc2ccc(S(=O)(=O)N3CCOCC3)cc21)Nc1c(F)c(F)c(F)c(F)c1F	1.26 µM [rising, partial curve, poor fit]	20 µM [rising, partial curve]
Cc1cc(C)cc(-n2c(SCC(=O)N3CCC(C)CC3)nc3c([nH]c4ccccc43)c2=O)c1	0.02 µM [falling, full curve, poor fit]	0.0224 µM [falling, full curve, poor fit]
CCCCC1=CC2=CC(=O)C(C)(OC(=O)CC)C(=O)C2=CN1Cc1ccc2c(c1)OCO2 (stereo unspecified)	1.41 µM [falling, partial curve, poor fit]	0.126 µM [falling, partial curve, poor fit]
COc1ccc(NS(=O)(=O)c2ccc(NC(=O)c3ccc(N(C)S(C)(=O)=O)cc3)cc2)cc1		4.47 µM [rising, full curve]
CC(C)(C)OC(=O)NNC(=O)Nc1ccccc1C(F)(F)F	6.31 µM [rising, partial curve, poor fit]	1.78 µM [rising, full curve]
COc1ccc(Nc2oc(-c3ccc(F)cc3)nc2C#N)cc1	6.31 µM [rising, single point]	
Cc1ccc(NC(=O)CSc2nnc(-c3ccco3)o2)c(C)c1		0.00316 µM [falling, full curve, poor fit]
COc1ccc(NC(=O)/C=C/c2ccc(C)o2)cc1S(=O)(=O)N1CCOCC1		11.2 µM [rising, single point]
CCN(CC)C(=O)c1ccccc1NC(=O)CN1C(=O)c2ccccc2C1=O	35.5 µM [falling, single point]	
Cn1c(=O)c2ncn(CC(=O)NC3CCCCCC3)c2n(C)c1=O		0.0398 µM [falling, full curve]
CC(=O)Nc1nc(-c2ccc(Cl)cc2)ns1	0.0398 µM [rising, full curve, poor fit]	15.8 µM [rising, partial curve]
CCc1ccc(OCCOCC(O)CN2CCN(Cc3ccc(Cl)cc3)CC2)cc1 (stereo unspecified)	10 µM [rising, partial curve, poor fit]	15.8 µM [rising, partial curve]
c1ccc(-n2nnnc2SCc2cccc3nsnc23)cc1	20 µM [rising, single point]	
Cc1ccc([N+](=O)[O-])cc1S(=O)(=O)N(C(=O)c1ccncc1)c1ccc2oc3c(c2c1)CCCC3		25.1 µM [rising, single point]
O=C1CCCN1CCCNC(=S)Nc1ccc(Cl)cc1Cl		28.2 µM [falling, single point]
CN(C)CCCn1c(SCC(=O)N2CC(=O)Nc3ccccc32)nc2ccccc2c1=O	0.0708 µM [falling, full curve, poor fit]	
COc1ccc(CNC(=O)C2CCCN(S(=O)(=O)c3ccc4c(ccn4C)c3)C2)c(OC)c1 (stereo unspecified)		2.82 µM [rising, partial curve, poor fit]

An excerpt from above in order of SMILES length, smallest number first:
SMILES	AC50 [1]	AC50 [2]
CC(=O)Nc1nc(-c2ccc(Cl)cc2)ns1	0.0398 µM [rising, full curve, poor fit]	15.8 µM [rising, partial curve]
COc1ccc(Nc2oc(-c3ccc(F)cc3)nc2C#N)cc1	6.31 µM [rising, single point]	
Cc1ccc(NC(=O)CSc2nnc(-c3ccco3)o2)c(C)c1		0.00316 µM [falling, full curve, poor fit]
Cn1c(=O)c2ncn(CC(=O)NC3CCCCCC3)c2n(C)c1=O		0.0398 µM [falling, full curve]
COc1ccc(CNC(=O)C2CCCN(S(=O)(=O)c3ccc4c(ccn4C)c3)C2)c(OC)c1 (stereo unspecified)		2.82 µM [rising, partial curve, poor fit]
O=C(COn1nnc2ccc(S(=O)(=O)N3CCOCC3)cc21)Nc1c(F)c(F)c(F)c(F)c1F	1.26 µM [rising, partial curve, poor fit]	20 µM [rising, partial curve]

The listing continues.

SMILES	AC50 [1]	AC50 [2]
Cn1ccnc1C(=O)c1ccc(NN)c([N+](=O)[O-])c1		14.1 µM [rising, single point]
CCOc1ccc2nc(N3CCN(C(=O)c4ccco4)CC3)sc2c1	0.224 µM [falling, full curve, poor fit]	0.00316 µM [falling, full curve, poor fit]
CC(C)Cn1c(-c2nn(C)cc2Cl)n[nH]c1=S	1 µM [rising, partial curve]	
O=C(COc1ccc2ccccc2c1)NCCc1ccc2c(c1)OCCO2		22.4 µM [rising, single point]
O=C(C1CCC(Cn2c(=O)c3sccc3n(Cc3ccccc3)c2=O)CC1)N1CCOCC1 (stereo unspecified)		5.01 µM [falling, full curve, poor fit]
Cn1c(=O)n(Cc2ccc(Cl)cc2)c(=O)c2c1nc1n2CCN1Cc1ccco1	14.1 µM [rising, partial curve, poor fit]	
Cc1ccc(NC(=O)/C(Cl)=C/c2ccccc2)cc1C	35.5 µM [rising, single point]	25.1 µM [rising, partial curve]
O=C(NCc1ccco1)c1cc2nc(-c3cccs3)cc(C(F)(F)F)n2n1	0.0355 µM [rising, full curve, poor fit]	
CC(=O)O[C@]1(C(C)=O)CC[C@H]2[C@@H]3C=C(C)C4=CC(=O)CC[C@]4(C)[C@H]3CC[C@@]21C	2.82 µM [falling, full curve, poor fit]	8.91 µM [falling, partial curve]
COc1ccc(S(=O)(=O)c2c(Nc3ccccc3F)sc(C(=O)c3cccc(OC)c3)c2N)cc1		2.24 µM [rising, full curve]
CCOC(=O)c1[nH]c(C)c(C(=O)OCC(=O)Nc2sc3c(c2C#N)CCCCC3)c1C	1.78 µM [falling, partial curve, poor fit]	22.4 µM [falling, partial curve, poor fit]
CCOC(=O)C1=C(c2ccccc2)N(C)C(=O)NC1c1ccc(O)c(OC)c1 (stereo unspecified)	0.631 µM [falling, full curve]	0.631 µM [falling, full curve]
O=c1c2ccc(Cl)cc2nc(-c2cccc(C(F)(F)F)c2)n1O	0.224 µM [falling, full curve, poor fit]	3.16 µM [falling, single point]
CCOC(=O)c1sc(NC(=O)CSc2nc3c(cc2C#N)CCCCCC3)c(C#N)c1C		7.94 µM [rising, partial curve, poor fit]
CC(NCC(O)COc1ccc(S(=O)(=O)N2CCOCC2)cc1)c1ccccc1 (stereo unspecified)	3.16 µM [falling, partial curve, poor fit]	
Cc1ccc(-c2csc3nc(C)n(-n4c(C)ccc4C)c(=O)c23)o1	5.01 µM [rising, partial curve]	7.94 µM [rising, partial curve]
